Reference: paper PMC6168554

Amino acid sequences for entries named in this document (tags omitted). A change or cut given only in a name is not applied to a line headed by its entry.
UniProt Q5NC57: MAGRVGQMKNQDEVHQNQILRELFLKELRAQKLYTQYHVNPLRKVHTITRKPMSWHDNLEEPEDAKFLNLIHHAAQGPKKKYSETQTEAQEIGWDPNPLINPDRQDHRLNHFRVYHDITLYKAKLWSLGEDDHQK

Target: N-flag-FAM183b (4 exons) (mouse) (UniProt Q5NC57)
Experiment: co-IP; CHO cells co-transfected with Flag-FAM183b and NUP93-Myc; IP with anti-Myc 9E10 or anti-Flag M2 and Protein G beads; washes with 500 mM NaCl, 0.05% NP-40; blots with anti-Myc-POD and anti-Flag-POD

binding: binds
B1: C-terminally Myc-tagged NUP93 (protein, UniProt Q8BJ71 1-819)
chain: MDTEGFGELLQQAEQLAAETEGISELPHVERNLQEIQQAGERLRSRTLTRTSQETADVKASVLLGSRGLDISHISQRLESLSAATTFEPLEPVKDTDIQGFLKNEKDNALLSAIEESRKRTFGMAEEYHRESMLVEWEQVKQRILHTLLASGEDALDFTQESEPSYIGDVNPPGRSSLDSIEMAYARQIYIYNEKIVSGHLQPNLVDLCASVAELDDKSISDMWAMVKQMTDVVLTPATDALKSRSSVEVRMDFVKQALGYLEQSYKNYTLVTVFGNLHQAQLGGVPGTYQLVRSFLNIKLPAPSPGLQDGEVEGHPVWALIYYCMRCGDLLAASQVVSRAQHQLGEFKTWFQEYMNSKDRRLSPATENKLRLHYRRALRNNTDPYKRAVYCIIGRCDITDNQSEVADKTEDYLWLKLNQVCFDDDGTSSPQDRLTLSQFQKQLLEDYGESHFTVNQQPFLYFQVLFLTAQFEAAIAFLFRMERLRCHAVHVALVLFELKLLLKSSGQSAQLLSHEPGDPPCMRRLNFVRLLMLYTRKFESTDPREALQYFYFLRDEKDSQGENMFLRCVSELVIESREFDMILGKLENDGSRKPGVIDKFTSDTKPIINKVASVAENKGLFEEAAKLYDLAKNADKVLELMNKLLSPVVPQISAPQSNKERLKNMALSIAERYRAQGISANKFVDSTFYLLLDLITFFDEYHSGHIDRAFDIIDRLKLVPLNQESVEERVAAFRNFSDEIRHNLSEVLLATMNILFTQFKRLKGTSPSSATRPQRVIEDRDSQLRSQARALITFAGMIPYRTSGDTNARLVQMEVLMN

These are yes or no findings as the source states them, for the method shown. Binding seen in cells or lysates may run through a third protein. A result given as binding can be weak or reduced; the word gives no strength. Tags and fused reporters may be left off the sequences shown.
